{"source": "PubChem BioAssay AID1159578 (Peter MacCallum Cancer Centre, 2015)", "screen": "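siRNA pools altering how lymphatic endothelial cells close a scratch wound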 (primary screen)", "system": "human lymphatic endothelial cells", "knock-down reagent": "siRNA pool against human genes, 40 nM", "timing": "48 h after transfection", "read-out": "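Cells stained with dye and imaged after a scratch; covered wound area and nuclei counted, duplicates averaged, migration set against mock wells and turned into a robust z-score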", "scale": "migration robust z-score: higher = faster migration into the scratch; nuclei per well: higher = more cells in the well", "call rule": "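Pools averaging fewer than 3300 nuclei are never called; remaining pools count as changed when migration robust z lies outside -2 to 2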", "meaning of the calls": "active = migration changed; inactive = no migration change, or too few cells", "note": "Here is an unselected part of about 18,000 reagents tested. About 1,030 of them (5.7%) count as active. 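Inactive calls also include pools with fewer than 3300 nuclei, whose migration was not assessed.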 Raw values vary from plate to plate and are shown uncorrected. A number with no mark means an inactive call. Not all columns of the deposit are shown."}
{"gene": "GATAD1", "PubChem SID": "SID255359593", "migration robust z-score": 0.23, "migration class with cell-count check": "migration z between -2 and 2; enough cells", "nuclei per well, duplicate mean": 6525}
{"gene": "PHGDH", "PubChem SID": "SID255356719", "migration robust z-score": -1.38, "migration class with cell-count check": "migration z between -2 and 2; enough cells", "nuclei per well, duplicate mean": 7610}
{"gene": "BRAP", "PubChem SID": "SID255353463", "migration robust z-score": -0.23, "migration class with cell-count check": "migration z between -2 and 2; enough cells", "nuclei per well, duplicate mean": 6468}
{"gene": "CYRIA", "PubChem SID": "SID255360889", "migration robust z-score": -0.5, "migration class with cell-count check": "migration z between -2 and 2; enough cells", "nuclei per well, duplicate mean": 6416}
{"gene": "RAB40C", "PubChem SID": "SID255359594", "migration robust z-score": 1.58, "migration class with cell-count check": "migration z between -2 and 2; enough cells", "nuclei per well, duplicate mean": 5460}
{"gene": "SLC25A37", "PubChem SID": "SID255357632", "migration robust z-score": -1.79, "migration class with cell-count check": "migration z between -2 and 2; enough cells", "nuclei per well, duplicate mean": 5304}
{"gene": "CPTP", "PubChem SID": "SID255360810", "migration robust z-score": -0.98, "migration class with cell-count check": "migration z between -2 and 2; enough cells", "nuclei per well, duplicate mean": 5494}

As entered above:
CYRIA [SID255360889], migration robust z-score → -0.5
Result of RAB40C [SID255359594] under “migration class with cell-count check”: migration z between -2 and 2; enough cells

More results follow:
{"gene": "PHYHIP", "PubChem SID": "SID255354564", "migration robust z-score": 0.34, "migration class with cell-count check": "migration z between -2 and 2; enough cells", "nuclei per well, duplicate mean": 5228}
{"gene": "CCDC178", "PubChem SID": "SID255365334", "migration robust z-score": -0.3, "migration class with cell-count check": "migration z between -2 and 2; enough cells", "nuclei per well, duplicate mean": 5634}
{"gene": "OR7E85BP", "PubChem SID": "SID255366125", "migration robust z-score": -0.22, "migration class with cell-count check": "migration z between -2 and 2; enough cells", "nuclei per well, duplicate mean": 5936}
{"gene": "MTCL3", "PubChem SID": "SID255365428", "migration robust z-score": -0.05, "migration class with cell-count check": "migration z between -2 and 2; enough cells", "nuclei per well, duplicate mean": 5534}
{"gene": "IL27RA", "PubChem SID": "SID255354297", "migration robust z-score": 0.08, "migration class with cell-count check": "migration z between -2 and 2; enough cells", "nuclei per well, duplicate mean": 5247}
{"gene": "GPHRB", "PubChem SID": "SID255357731", "migration robust z-score": 0.36, "migration class with cell-count check": "migration z between -2 and 2; enough cells", "nuclei per well, duplicate mean": 5343}
{"gene": "OR4A15", "PubChem SID": "SID255360862", "migration robust z-score": 1.5, "migration class with cell-count check": "migration z between -2 and 2; enough cells", "nuclei per well, duplicate mean": 7142}
{"gene": "BRD10", "PubChem SID": "SID255363659", "migration robust z-score": 0.5, "migration class with cell-count check": "migration z between -2 and 2; enough cells", "nuclei per well, duplicate mean": 6072}
{"gene": "KIAA1586", "PubChem SID": "SID255359552", "migration robust z-score": 0.03, "migration class with cell-count check": "migration z between -2 and 2; enough cells", "nuclei per well, duplicate mean": 5738}
{"gene": "TCEAL9", "PubChem SID": "SID255357545", "migration robust z-score": -0.06, "migration class with cell-count check": "migration z between -2 and 2; enough cells", "nuclei per well, duplicate mean": 6378}
{"gene": "LRP5", "PubChem SID": "SID255350799", "migration robust z-score": -0.68, "migration class with cell-count check": "migration z between -2 and 2; enough cells", "nuclei per well, duplicate mean": 5254}
{"gene": "MAJIN", "PubChem SID": "SID255364636", "migration robust z-score": 0.46, "migration class with cell-count check": "migration z between -2 and 2; enough cells", "nuclei per well, duplicate mean": 5622}
{"gene": "OR4F5", "PubChem SID": "SID255360296", "migration robust z-score": "2.08 (active)", "migration class with cell-count check": "migration z above 2; enough cells", "nuclei per well, duplicate mean": 6038}
{"gene": "RASGRF1", "PubChem SID": "SID255352055", "migration robust z-score": -1.12, "migration class with cell-count check": "migration z between -2 and 2; enough cells", "nuclei per well, duplicate mean": 5546}
